From publication PMC4919008
No constants are given. Whether binding was seen depends on the method and setting. Some binding calls cover weakened binding; strength is not graded here.

Chains of the proteins cited; added tags and fusions are not shown. Residues count along the entry.
UniProt P78556, residues 27-96: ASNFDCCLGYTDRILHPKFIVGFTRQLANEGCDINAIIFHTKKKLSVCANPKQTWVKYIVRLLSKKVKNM

Target: T1, human CC chemokine receptor 6 (huCCR6) (human) (UniProt P51684)
T1 sequence: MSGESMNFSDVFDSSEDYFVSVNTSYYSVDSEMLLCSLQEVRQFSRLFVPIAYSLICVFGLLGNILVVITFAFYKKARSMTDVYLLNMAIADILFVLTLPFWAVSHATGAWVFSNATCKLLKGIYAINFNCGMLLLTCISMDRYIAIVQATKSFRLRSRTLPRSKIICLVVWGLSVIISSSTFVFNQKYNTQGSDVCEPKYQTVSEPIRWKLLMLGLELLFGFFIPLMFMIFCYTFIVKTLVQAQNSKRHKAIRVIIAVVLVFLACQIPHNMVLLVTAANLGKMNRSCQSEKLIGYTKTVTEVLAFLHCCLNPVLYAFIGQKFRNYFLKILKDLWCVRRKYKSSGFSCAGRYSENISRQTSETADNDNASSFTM
Test: flow cytometry on cells; competitive binding: 100,000 huCCR6-CHO cells pre-incubated with unlabeled huCCL20 (8 μg/mL) for 15 min at 4°C in 100 μL binding buffer (PBS, 0.5% BSA, 0.1% NaN3), then AF647-huCCL20 at 80 ng/mL for 30 min at 4°C; binding without competitor set to 100%; only the binder purified

| binding | Substance |
| --- | --- |
| binds | huCCL20 (unlabeled) (from UniProt P78556 27-96) (ligand) |
| binds | Alexa Fluor 647-conjugated huCCL20 (from UniProt P78556 27-96) (ligand) |
